Source: patent publication US20060052432A1, “Pharmaceutical compositions with improved dissolution” (priority 2002, published 2006)
Where a name gives a salt, the structure may show the parent alone. For at least one compound, name, drawing or mass did not settle the structure.

How the values were obtained:
[1] = Solubility of celecoxib sodium salt in the presence of polyvinylpyrrolidone; format: physicochemical; details: water added to 1:4 mixture with polyvinylpyrrolidone (PVP)
[2] = about pH 2 (about the pH of the stomach interior)

Q: Which “time the clear solution was stable before crystals of neutral celecoxib began to form” value [1] does the source give for `Cc1ccc(-c2cc(C(F)(F)F)nn2-c2ccc(S(N)(=O)=O)cc2)cc1` [celecoxib sodium salt, sodium salt of 4-[5-(4-methylphenyl)-3-(trifluoromethyl)-1H-pyrazol-1-yl]benzenesulfonamide] here?
A: at least 15 minutes

Q: What about the “behaviour of solutions at about pH 2” value [2] of the same compound?
A: precipitate immediately
